Laboratory results published in patent publication US20180139987A1, “PHARMACEUTICAL POWDER COMPOSITION AND ITS USE IN THE CONTROL OF POST-PRANDIAL GLYCAEMIC PROFILE” (OMNIBLEND INNOVATION PTY LTD, priority 2015, published 2018).
At least one structure is not confirmed: it was looked up by name or label, or the drawing left a doubt.

Test system: subject with type 2 diabetes
Test: Post-prandial glycemic profile (finger-prick blood sugar) after white rice breakfast, subjects with type 2 diabetes
Type: in vivo, human
Settings: 50 mg tablet of acarbose taken with, soon before or soon after a pre-meal drink not containing acarbose
Protocol: 160 g microwaveable white rice (details, amount of available carbohydrate?) was eaten together with a cup of water.
240 g microwaveable white rice (Uncle Bens Brand Microwavable White Rice, […] of available carbohydrate) and 200 ml of hot tea.
Finger-prick blood sugar readings were taken before consumption of the standard meal in the morning (i.e. the standard meal was breakfast). Two readings were taken and the average value was used as the blood sugar reading. After consumption of the meal, another blood sugar reading was taken. Further blood sugar readings were taken at 15-minute intervals thereafter.
A subject with type 2 diabetes (T2D1, person) was given a standard white rice breakfast (Example A2) and was tested for post-prandial glycemic profile—this was the first control glycemic profile. […] This was the third control glycemic profile. […] This was the test glycemic profile. […]
A subject with type 2 diabetes (T2D5, person) was given a standard white rice breakfast (Example A2) and was tested for post-prandial glycemic profile—this was the first control glycemic profile. […] This was the third control glycemic profile. […] This was the test glycemic profile.
This was the second glycemic test profile.
This was the second test glycemic profile.
This was the first glycemic test profile.

C[C@H]1O[C@H](O[C@H]2[C@H](O)[C@@H](O)[C@@H](O[C@H]3[C@H](O)[C@@H](O)C(O)O[C@@H]3CO)O[C@@H]2CO)[C@H](O)[C@@H](O)[C@@H]1N[C@H]1C=C(CO)[C@@H](O)[C@H](O)[C@H]1O (stereo partly shown) [acarbose]
resultant glycemic profile compared with tablet taken together with the standard meal: significantly higher
